# Data: patent US20080275023A1, “N-Hydroxyamides Omege-Substituted with Tricyclic Groups as Histone Deacetylase Inhibitors, Their Preparation and Use in Pharmaceutical Formulations” (priority 2005, published 2008)
# System: histone deacetylase (HDAC), HeLa nuclear extract
# Assay: Deacetylase activity on nuclear extract of HeLa cells (Fluor de Lys kit)
# Format: biochemical, human
# Conditions: 0.1 μM compound, percent inhibition relative to control without inhibitor
# Method: The activity of the compounds as histone deacetylase (HDAC) inhibitors was measured using an in vitro acetylation assay. The compounds were then evaluated as inhibitors of proliferation of human tumor cell cultures.
# Deacetylase Activity on Nuclear Extract of Hela Cells (Human Cervical Cancer Cell)
# The assay (Fluor de Lys™ kit, BioMol) is divided into two steps: in the first step the substrate which comprises an acetylated lysine residue is reacted with the nuclear extract (HeLa) containing the enzymatic activity in the presence and absence of inhibitors. In the second step a fluorogenic reagent is added which highlights the deacetylated residues. A reduction in fluorescence is obtained where there has been inhibition of the deacetylase activity. The result is finally expressed as percent inhibition relative to the control without inhibitor at a concentration of 1 μM.
smiles,measurement,value
"O=C(CCCCCCC(=O)Nc1ccccc1)NO [suberanilohydroxamic acid (SAHA), suberanilohydroxamic acid, reference compound]",% inhib at 0.1 μM,55%
